Laboratory results: PubChem BioAssay AID504786 (Drosophila RNAi Screening Center, 2011)
Purpose: 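Positive regulators of HIF-driven reporter output in Drosophila cells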 (primary screen). Cells: Drosophila S2 cells with a stable HIF luciferase reporter. Reagents: long dsRNA against Drosophila genes, about 0.2 µg dsRNA per well of a 384-well plate. Timing: three days of knock-down, then 20 h of DFO before reading. Treatment: desferrioxamine (DFO) at 100 µM, an iron chelator that mimics hypoxia, for 20 h. Read-out: 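HIF reporter luminescence in cells given 100 µM DFO for 20 h, using the mouse ldh-a hypoxia-response element, scored as per-plate z-scores; higher means greater loss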. Direction: z-score: higher = stronger loss of HIF reporter signal.
In all, the deposit lists about 21,000 reagents; this is a random part of those that have a named target and a result. 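Primary screen; positive scores mean lost reporter signal, so the sign may be inverted from the usual convention.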 Names joined by + are all predicted targets of the reagent.

| Target gene | dsRNA | z-score, replicate 1 | z-score, replicate 2 |
| --- | --- | --- | --- |
| ImpL1 (Ecdysone-inducible gene L1) | DRSC11197 | -0.3 | -0.4 |
| TwdlP (TweedleP) | DRSC14734 | 0 | 0.1 |
| CG9416 | DRSC07339 | -0.3 | -0.4 |
| CSN4 (COP9 signalosome subunit 4) | DRSC07350 | 1.8 | 1.7 |
| cnk (connector enhancer of ksr) | DRSC07595 | 0.1 | 0.3 |
| CG15373 | DRSC19663 | -0.2 | 0.1 |
| CG11585 | DRSC19410 | -0.3 | 0 |
| CG8064 | DRSC16373 | -0.1 | 0.8 |
| CG11381 | DRSC17780 | 1.7 | 0.7 |
| CG6330 | DRSC16022 | -0.3 | -0.6 |
| Sema1b (Semaphorin 1b) | DRSC07550 | -0.4 | -1.2 |
| Rabex-5 (Rabaptin-5-associated exchange factor for Rab5) | DRSC08628 | -0.2 | -0.5 |
| CG15022 | DRSC08476 | -0.2 | -0.8 |
| CG14109 | DRSC10112 | -0.3 | -0.9 |
| CG12560 | DRSC02174 | -0.3 | -0.2 |
| spir (spire) | DRSC03619 | -0.3 | -0.3 |
| her (hermaphrodite) | DRSC03543 | 0.8 | 1 |
| Golgin97 (Golgin 97) | DRSC06895 | -0.4 | -0.4 |
| CG43897 | DRSC10965 | -0.2 | -1 |
| CG43897 | DRSC10967 | -0.3 | -0.3 |
| Nplp1 (Neuropeptide-like precursor 1) | DRSC04370 | -0.2 | -0.4 |
| Dna2 (DNA replication helicase/nuclease 2) | DRSC18254 | -0.3 | -0.4 |
| CG40583 (retired record) | DRSC20938 | -0.1 | -0.1 |
| CG3556 | DRSC18309 | -0.1 | -0.4 |
| EMC8-9 (ER membrane protein complex subunit 8/9) | DRSC04380 | -0.2 | 0.1 |
| CG5973 | DRSC02918 | -0.3 | -0.4 |
| CG14355 | DRSC14818 | -0.3 | -0.4 |
| CG16723 | DRSC15138 | 0 | 1.9 |
| CG34129 | DRSC15960 | 0 | 0.5 |
| CG14006 | DRSC02338 | -0.2 | -0.4 |
| Spn42De (Serpin 42De) | DRSC05011 | 0.6 | 0.9 |
| CG31678 | DRSC02618 | -0.3 | -0.1 |
| CG31678 | DRSC02619 | -0.3 | -0.3 |
| para (paralytic) | DRSC19141 | -0.3 | -0.4 |
| para (paralytic) | DRSC20360 | -0.2 | 0.8 |
| Pp4-19C (Protein phosphatase 19C) | DRSC20559 | -1 | -1.6 |
| Pp4-19C (Protein phosphatase 19C) | DRSC21251 | -1 | -1.6 |
| CG30192 | DRSC03977 | -0.6 | 0.3 |
| CG14811 | DRSC17962 | -0.3 | -0.2 |
| CG30016 | DRSC05242 | -0.1 | 0 |
| mmd (mind-meld) | DRSC19672 | 0 | 0 |
| mmd (mind-meld) | DRSC19673 | -0.1 | -0.5 |
| mmd (mind-meld) | DRSC20161 | -0.3 | 0.4 |
| Acp53C14a (Accessory gland protein 53C14a) | DRSC07224 | -0.2 | -0.4 |
| Lcp1Psi (Larval cuticle protein 1 pseudogene) | DRSC05105 | 0.6 | 0.3 |
| Rme-8 (Receptor mediated endocytosis 8) | DRSC07054 | -0.4 | 0.4 |
| Hmx (H6-like-homeobox) | DRSC15884 | -0.3 | -0.5 |
| Hmx (H6-like-homeobox) | DRSC16706 | -0.4 | 0.2 |
| CG3251 | DRSC00586 | -0.2 | -0.4 |
| CG10508 | DRSC11612 | -0.2 | -0.4 |
| CG10508 | DRSC11613 | -0.2 | -0.1 |
| CG8925 | DRSC16455 | -0.1 | -0.6 |
| CG8925 | DRSC16456 | -0.1 | -0.1 |
| CG8925 | DRSC16457 | -0.4 | -0.6 |
| temp (tempura) | DRSC18271 | -0.3 | -0.6 |
| Cpr72Ec (Cuticular protein 72Ec) | DRSC10449 | -0.3 | -0.4 |
| Cdc27 (Cell division cycle 27) | DRSC11112 | 3.6 | 2.8 |

Continued, starting with the last 3 of the part before.
| Target gene | dsRNA | z-score, replicate 1 | z-score, replicate 2 |
| --- | --- | --- | --- |
| temp (tempura) | DRSC18271 | -0.3 | -0.6 |
| Cpr72Ec (Cuticular protein 72Ec) | DRSC10449 | -0.3 | -0.4 |
| Cdc27 (Cell division cycle 27) | DRSC11112 | 3.6 | 2.8 |
| CG14752 | DRSC06488 | -0.2 | -0.8 |
| ZAP3 | DRSC17852 | 0 | 0.7 |
| ZAP3 | DRSC17853 | -0.1 | -0.1 |
| ZAP3 | DRSC18249 | 0.3 | 0.5 |
| CG10347 | DRSC19352 | -0.4 | -0.6 |
| CG17738 | DRSC15257 | -0.2 | -0.6 |
| Gr85a (Gustatory receptor 85a) | DRSC12760 | -0.2 | 0.3 |
| Best1 (Bestrophin 1) | DRSC16909 | -0.3 | -0.7 |
| CG4962 | DRSC10464 | 0.1 | -0.8 |
| Mys45A (Mystery 45A) | DRSC07067 | 0.5 | 2.6 |
| levy | DRSC04289 | 0.3 | 0.6 |
| CG30046 | DRSC06691 | -0.1 | -0.2 |
| CG13102 | DRSC02202 | -0.4 | -0.6 |
| Vlet (Valette) | DRSC19845 | -0.1 | -0.7 |
| ND-B16.6 (NADH dehydrogenase (ubiquinone) B16.6 subunit) | DRSC18306 | -0.2 | 0.5 |
| Tpl94D (Transition protein-like 94D) | DRSC13593 | 0.5 | -0.1 |
| CG33221 (retired record) | DRSC21201 | 0 | -0.3 |
| Pgant2 (Polypeptide N-Acetylgalactosaminyltransferase 2) | DRSC00587 | -0.3 | 0 |
| Cpr57A + Obp57d | DRSC06708 | -0.1 | -0.4 |
| P58IPK | DRSC16404 | -0.3 | 0.3 |
| CG18269 | DRSC02660 | -0.4 | -0.6 |
| Rbbp5 (Retinoblastoma binding protein 5) | DRSC11778 | -0.4 | -0.5 |
| CG14565 | DRSC11726 | -0.4 | -0.6 |
| CG12914 | DRSC06229 | -0.3 | -0.3 |
| Tep4 (Thioester-containing protein 4) | DRSC03453 | -0.2 | 0 |
| CCHa1 (CCHamide-1) | DRSC14821 | 2 | 1.5 |
| CG32017 | DRSC17183 | -0.3 | -0.5 |
| Bem46 | DRSC00275 | -0.2 | -0.4 |
| ear (ENL/AF9-related) | DRSC15675 | 0.3 | 0.8 |
| Ets21C (Ets at 21C) | DRSC00751 | 0 | -0.4 |
| Vps33B (Vacuolar protein sorting 33B) | DRSC15722 | -0.2 | 0.3 |
| CG16772 | DRSC02516 | -0.3 | -0.8 |
| Or45b (Odorant receptor 45b) | DRSC07488 | -0.3 | -0.4 |
| Lpt (Lost PHDs of trr) | DRSC04291 | -0.4 | -0.5 |
| Lpt (Lost PHDs of trr) | DRSC04515 | -0.4 | -0.4 |
| IntS11 (Integrator 11) | DRSC15407 | -0.4 | -0.6 |
| CG17111 | DRSC15174 | -0.3 | -0.2 |
| NT5E-2 (Ecto-5'-nucleotidase 2) | DRSC06893 | -0.3 | -0.5 |
| Rim2 (Replication in mitochondria 2) | DRSC00073 | -0.3 | -0.1 |
| Rim2 (Replication in mitochondria 2) | DRSC00520 | 0 | 0.1 |
| CG3808 | DRSC10377 | 0 | 1 |
| CG6592 | DRSC10669 | -0.3 | -0.5 |
| CG1827 | DRSC06719 | -0.3 | -0.4 |
| woc (without children) | DRSC15928 | 0.2 | 0.9 |
| HmgZ (HMG protein Z) | DRSC03888 | 0.9 | 0.7 |
| HmgZ (HMG protein Z) | DRSC04620 | 0.2 | 0.2 |
| Nop17l (Nop17 like) | DRSC06556 | -0.4 | -0.3 |
| CG14866 | DRSC14989 | -0.3 | -0.7 |
| Irp-1B (Iron regulatory protein 1B) | DRSC16720 | -0.3 | -0.5 |
